Conjugation yield data for 1 substance are collected here from US20050123536A1 (priority 2001, published 2005).

This data set in a line: general procedure: solution-phase peptide synthesis; DEPC; HATU. The settings on record: conjugation step, overall, trifluoroacetate salt.

As to mc-Phe-Lys-MMAE drug-linker (10.4), the conjugation yield amounted to 32% overall.
